Here are results for one substance from PMC4099368.

Amino acid sequences for entries named in this document (tags omitted). Residues count along the entry.
UniProt P43694, residues 200-254: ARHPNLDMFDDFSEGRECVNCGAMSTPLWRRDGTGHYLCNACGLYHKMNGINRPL

The target of assay [1] is T1, GST-ZFPM2/FOG2 p.M703L (human) (UniProt Q8WW38).
T1 sequence: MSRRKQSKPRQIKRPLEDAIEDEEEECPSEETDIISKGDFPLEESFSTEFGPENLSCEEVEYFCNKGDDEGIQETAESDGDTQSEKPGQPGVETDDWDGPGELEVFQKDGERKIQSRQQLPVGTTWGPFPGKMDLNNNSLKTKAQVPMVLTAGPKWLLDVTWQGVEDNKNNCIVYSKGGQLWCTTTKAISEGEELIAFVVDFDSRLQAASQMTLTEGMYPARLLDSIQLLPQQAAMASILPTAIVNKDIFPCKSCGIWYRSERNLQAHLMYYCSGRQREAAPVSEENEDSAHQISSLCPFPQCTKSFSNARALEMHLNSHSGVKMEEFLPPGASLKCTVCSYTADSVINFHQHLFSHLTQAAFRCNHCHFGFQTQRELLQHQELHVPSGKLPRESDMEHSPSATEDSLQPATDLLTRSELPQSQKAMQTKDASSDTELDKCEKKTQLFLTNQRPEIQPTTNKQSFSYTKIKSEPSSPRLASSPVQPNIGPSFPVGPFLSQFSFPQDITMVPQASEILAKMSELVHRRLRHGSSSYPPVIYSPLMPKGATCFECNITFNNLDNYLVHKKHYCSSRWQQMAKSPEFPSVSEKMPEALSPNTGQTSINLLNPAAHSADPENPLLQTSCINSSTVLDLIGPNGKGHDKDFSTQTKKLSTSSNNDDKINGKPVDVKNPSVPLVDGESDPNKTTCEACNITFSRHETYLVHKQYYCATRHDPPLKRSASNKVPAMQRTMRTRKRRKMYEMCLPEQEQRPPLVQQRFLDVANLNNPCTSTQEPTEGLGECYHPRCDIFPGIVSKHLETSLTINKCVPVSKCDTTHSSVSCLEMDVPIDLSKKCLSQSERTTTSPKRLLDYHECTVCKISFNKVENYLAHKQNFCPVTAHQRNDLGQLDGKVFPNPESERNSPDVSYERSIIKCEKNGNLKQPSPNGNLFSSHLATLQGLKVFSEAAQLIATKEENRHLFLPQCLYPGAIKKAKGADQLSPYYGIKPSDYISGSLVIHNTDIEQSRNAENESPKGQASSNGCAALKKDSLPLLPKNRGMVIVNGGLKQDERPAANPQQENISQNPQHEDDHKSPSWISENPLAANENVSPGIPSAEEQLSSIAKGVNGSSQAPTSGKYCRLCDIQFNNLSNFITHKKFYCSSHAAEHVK
Kind of assay: pull-down; GST-ZFPM2/FOG2 (wild type or mutant) bound to 200 µl glutathione resin (Pierce GST Protein Interaction Pull-Down kit), incubated with GATA4 fragment at 4°C; washed with 25 mM Tris-HCl pH 7.2, 150 mM NaCl; eluate on SDS-PAGE, Coomassie staining.

For assay [2], the target named is T2, GST-ZFPM2/FOG2 p.M544I (human) (UniProt Q8WW38).
T2 sequence: T1 sequence with M544I, L703M
The assay is described as above.

Numbering of substitutions follows the chain as printed. Results are given in words; binding and its absence hold for the method and conditions named. Binding seen in cells or lysates may run through a third protein. Some results given as binding are weak or reduced against the parent protein; the word gives no strength. Sequences can lack the tags named with a protein.

“N-terminal zinc-finger sequence of GATA4 (residues 200-254) (from UniProt P43694 200-254) (domain or fragment)”: the binding result in assay [1] and in assay [2] was “binds” throughout.
